Measurements reported in PubChem BioAssay AID1347076 (National Center for Advancing Translational Sciences (NCATS), 2019).
Among all 400,000 compounds or so, about 13,000 (3.2%) were called active. This list was built around the results that the source calls inconclusive (neither active nor inactive); the mix of calls is not that of the screen. The call rests on the fitted dose curve; in most records, active means well fitted cell-killing curve with a large enough effect; inconclusive means small, poorly fitted or top-dose-only effect, or effect the other way; inactive means flat fitted curve, though single readings scatter. Where the call is inconclusive, the potency comes from a doubtful curve fit.

experiment: qHTS assay for MDR1-selective chemotherapeutics: Primary screen using the drug-selected MDR subline cells KB-V1; conditions: KB-V1 MDR cells viability, CellTiter-Glo, 72 h; activity change, negative = cytotoxicity: at 46.1 µM (top of the series); further: nearly all actives have a fitted effect of over 60% in size
How it was run: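 Drug-selected KB-V1 cells, grown in DMEM lacking phenol red with 10% FBS, receive compound titrations; after three days at 37 degrees C, surviving cell ATP is quantified by CellTiter-Glo luminescence and responses normalized and curve-fitted.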
On the % scale 0 is the no-effect control and ±100 the full control effect; potency means the concentration at half of the fitted maximal effect.

Q: Which Potency does the source give for `COc1ccc(Cc2nc3ccc(C(=O)NC4CCOC4)cc3o2)cc1OC` (stereo not given) here?
A: inconclusive: 29.1 µM [cytotoxic, single point]

Q: For `CCC(C)(C)n1nnnc1C(c1cc(OC)ccc1OC)N1CCN(Cc2ccccc2)CC1` (stereo not given), which Potency is on record?
A: inconclusive: 0.103 µM [cytotoxic, full curve]

Q: With `CCN(CC)c1ccc(CNS(=O)(=O)c2cc3c(cc2C)NC(=O)CO3)cc1` as the compound, how does the “activity change, negative = cytotoxicity” value read?
A: inactive: 2.12%

Q: Which Potency does the source give for `COc1ccc(F)cc1-c1cc(NC=O)c2ncc(-c3cccc(C(=O)N(C)C)c3)n2c1` here?
A: inconclusive: 7.31 µM [cytotoxic, partial curve, poor fit]

Q: For `Cc1ccc(Cn2cccc2/C=N/NC(=S)Nc2ccc(C)cc2)cc1`, which “activity change, negative = cytotoxicity” value is on record?
A: inactive: -10.6%

Q: Which Potency does the source give for `CC(=O)c1cccc(N=c2scc(-c3ccc(S(=O)(=O)N4CCOCC4)cc3)n2CCO)c1` here?
A: active: 5.8 µM

Q: With `CN(CC(=O)Nc1cccc(F)c1)C(=O)c1cc(-c2cccs2)nn1-c1ccccc1` as the compound, how does the Potency read?
A: inconclusive: 23.1 µM [cytotoxic, partial curve, poor fit]

Q: With `CCOc1cc(S(=O)(=O)N2CCN(c3ccc(F)cc3)CC2)c(OCC)cc1-n1cnnn1` as the compound, how does the “activity change, negative = cytotoxicity” value read?
A: inactive: 7.5%

Q: With `COn1c(=O)c(=O)n(OC)c2ccccc21` as the compound, how does the Potency read?
A: inconclusive: 3.26 µM [rising, partial curve]

Q: With `O=C(/C=C/c1ccco1)NC(=S)Nc1cc(-c2nc3ccccc3s2)ccc1Cl` as the compound, how does the Potency read?
A: inconclusive: 29.1 µM [cytotoxic, single point]

Q: Which “activity change, negative = cytotoxicity” value does the source give for `Cn1c(SCc2ccccc2Cl)nc(=O)c2c1NC(=O)CC2c1cc(F)ccc1F` (stereo not given) here?
A: inactive: 0%

Q: With `Cc1ccc2nc(N=C(N)N)nc(C)c2c1` as the compound, how does the “activity change, negative = cytotoxicity” value read?
A: inactive: 3.05%

Q: For `Cc1ccc(S(=O)(=O)Nc2ccc(NC(=O)c3ccc(F)cc3)cc2)cc1`, which “activity change, negative = cytotoxicity” value is on record?
A: inactive: -9.87%

Q: Which “activity change, negative = cytotoxicity” value does the source give for `CCOc1ccc(NC(=O)Nc2c[nH]c(=O)[nH]c2=O)cc1` here?
A: inactive: 7.64%

Q: With `CNc1nc(NCc2ccc(N(C)C)cc2)c2sccc2n1` as the compound, how does the “activity change, negative = cytotoxicity” value read?
A: inactive: -11.2%

Q: With `COc1cccc(N=Cc2c(O)n(-c3cccc(C)n3)c(=O)c3ccccc23)c1` as the compound, how does the Potency read?
A: inconclusive: 2.31 µM [cytotoxic, full curve]

Q: Which Potency does the source give for `CCCCn1nnnc1C1(C)CCC(=O)N1CCOc1ccccc1` (stereo not given) here?
A: inconclusive: 20.6 µM [cytotoxic, partial curve]

Q: With `O=c1cc(-c2ccc(O)c(O)c2)oc2ccc3ccccc3c12` as the compound, how does the Potency read?
A: active: 18.4 µM

Q: For `O=C(c1cc(Cl)nc2ccccc12)N(Cc1nnc(-c2ccc(Cl)cc2)o1)C1CC1`, which Potency is on record?
A: inconclusive: 3.26 µM [cytotoxic, partial curve]

Q: For `NC(=O)NN=C1CCN2CCCc3cccc1c32`, which Potency is on record?
A: inconclusive: 29.1 µM [cytotoxic, single point]

Q: With `COc1ccc(C2=C(C=C(C#N)C#N)C(c3ccccc3C)c3ccccc3O2)cc1OC` (stereo not given) as the compound, how does the Potency read?
A: active: 14.6 µM

Q: Which Potency does the source give for `COc1cccc(OCC(=O)N(C)Cc2nc(-c3cccc(C)c3)no2)c1` here?
A: active: 23.1 µM

Q: Which Potency does the source give for `COC(=O)c1ccc2nc(-c3ccc(F)cc3)c(CC3CCCCC3)n2c1` here?
A: inconclusive: 8.2 µM [cytotoxic, partial curve]

Q: With `NC(=O)C1(N2CCCCC2)CCN(CC(=O)Nc2ccccc2Sc2ccccc2)CC1` as the compound, how does the Potency read?
A: inconclusive: 13 µM [cytotoxic, partial curve]

Q: With `Cc1onc(-c2ccccc2Cl)c1C(=O)NCc1nnnn1-c1ccc(F)c(F)c1` as the compound, how does the Potency read?
A: inconclusive: 16.4 µM [cytotoxic, partial curve]

Q: Which Potency does the source give for `CCCCCN(C(=O)CCC(=O)OCC(=O)c1c(C)cc(C)cc1C)c1c(N)n(CCCC)c(=O)[nH]c1=O` here?
A: inconclusive: 25.9 µM [rising, partial curve, poor fit]

Q: For `O=C(NC(Cc1ccccc1)C(=O)NCCc1ccccn1)c1ccccc1` (stereo not given), which Potency is on record?
A: inconclusive: 2.91 µM [cytotoxic, partial curve, poor fit]

Q: With `CCCN1C(=O)c2oc3cc(C)cc(C)c3c(=O)c2C1c1ccc(F)cc1` (stereo not given) as the compound, how does the “activity change, negative = cytotoxicity” value read?
A: inactive: -6.69%

Q: For `C[C@]12c3[nH]c4ccc(Cl)cc4c3CCN1C(=O)[C@@H](CC(=O)NCCc1ccccn1)C[C@@H]2C(=O)N1CCCCC1`, which “activity change, negative = cytotoxicity” value is on record?
A: inactive: -8.13%

Q: For `CCC(=O)N1CCN(c2ccc(NC(=O)c3ccc([N+](=O)[O-])o3)cc2)CC1`, which Potency is on record?
A: inconclusive: 25.9 µM [cytotoxic, single point]

Q: For `N#Cc1cccc(NC(=O)c2ccc(S(=O)(=O)N3CCOCC3)cc2)c1`, which Potency is on record?
A: inconclusive: 23.1 µM [rising, single point]

Q: With `CCOc1ccc(NC(=S)NCCCn2ccnc2)cc1` as the compound, how does the “activity change, negative = cytotoxicity” value read?
A: inactive: 31.7%

Q: Which Potency does the source give for `Cc1cc(=O)c2cc(C(=O)Nc3cccc(C)c3C)ccc2[nH]1` here?
A: inconclusive: 29.1 µM [rising, single point]

Q: For `Cc1ccc(S(=O)(=O)c2c(COC(=O)c3ccccc3Cl)c(-c3ccccc3)nn2C)cc1`, which Potency is on record?
A: inconclusive: 25.9 µM [cytotoxic, single point]

Q: For `O=S(=O)(c1ccc2c(c1)OCCO2)N1CCC(c2nc3ccccc3[nH]2)CC1`, which Potency is on record?
A: active: 14.6 µM

Q: With `CC(NC(=O)c1noc2c1CCCCC2)c1ccccc1` (stereo not given) as the compound, how does the Potency read?
A: inconclusive: 29.1 µM [cytotoxic, single point]

Q: Which Potency does the source give for `CCOc1ccccc1OCC(=O)Nc1nnc(COC)s1` here?
A: active: 18.4 µM

Q: With `COC(=O)C1CCN(S(=O)(=O)CCNC(=O)c2ccc(F)cc2)CC1` as the compound, how does the “activity change, negative = cytotoxicity” value read?
A: inactive: 2.44%

Q: For `CC(=O)c1cccc(NC(=O)c2cc(-c3cccs3)on2)c1`, which Potency is on record?
A: inconclusive: 20.6 µM [rising, single point]

Q: Which Potency does the source give for `Cc1c(C(=O)NCc2ccc(Cl)c(Cl)c2)sc(=O)n1Cc1cccc(F)c1` here?
A: inconclusive: 20.6 µM [cytotoxic, single point]

Q: Which “activity change, negative = cytotoxicity” value does the source give for `Cc1cccc(C)c1OCCCCN1CCCCC1` here?
A: inactive: -2.23%

Q: For `CCN(CC)c1nc(NN)nc(Nc2ccc(C)c(Cl)c2)n1`, which Potency is on record?
A: inconclusive: 18.4 µM [cytotoxic, single point]

Q: For `CCn1cc(C(=O)N2CCN(c3cccc(C)c3)C(C)C2)c(=O)c2cc(S(=O)(=O)N3CCOCC3)ccc21` (stereo not given), which “activity change, negative = cytotoxicity” value is on record?
A: inactive: 18.3%

Q: Which Potency does the source give for `COC(=O)c1ccc(CN2CCCC(C(=O)c3cc(F)ccc3OC)C2)cc1` (stereo not given) here?
A: inconclusive: 29.1 µM [cytotoxic, single point]

Q: With `Cc1nc(SCc2ccccc2)c(C(F)(F)F)c(=O)[nH]1` as the compound, how does the activity change, negative = cytotoxicity read?
A: inconclusive: 5.13%

Q: For `CCOc1c(Cl)cc(/C=C/C(=O)N(CC)CC(=O)Nc2ccc(NC(C)=O)cc2)cc1OC`, which Potency is on record?
A: inconclusive: 14.6 µM [cytotoxic, partial curve, poor fit]

Q: With `CCC(C)Sc1ccc([C@@H]2[C@H]3C(=O)N(CC)C(=O)[C@H]3[C@]3(C(=O)OC)CCCCN23)cc1` (stereo not given in full) as the compound, how does the Potency read?
A: active: 10.3 µM

Q: For `c1ccc(Nc2cccc(Nc3ccccc3)c2)cc1`, which Potency is on record?
A: inconclusive: 23.1 µM [cytotoxic, single point]

Q: For `COc1ccc(Nc2nc(C(=O)NCCCN3CCOCC3)cs2)cc1`, which Potency is on record?
A: inconclusive: 29.1 µM [cytotoxic, single point]

Q: With `Cc1ccc(-c2nnc(SCC(=O)N(CC(C)C)c3c(N)n(Cc4ccccc4)c(=O)[nH]c3=O)n2N)cc1` as the compound, how does the Potency read?
A: inconclusive: 20.6 µM [rising, single point]

Q: Which Potency does the source give for `COc1ccc2cc3cc(C(=O)NCCN4CCN(c5ccccc5F)CC4)oc3nc2c1` here?
A: inconclusive: 18.4 µM [cytotoxic, single point]

Q: Which Potency does the source give for `Cc1ccc(-c2nn(-c3ccccc3)cc2C(=O)N2CCN(c3ccccn3)CC2)cc1` here?
A: inconclusive: 25.9 µM [cytotoxic, partial curve, poor fit]

Q: Which Potency does the source give for `COc1ccc(NC(=O)Nc2cc(F)ccc2C)cc1` here?
A: inconclusive: 23.1 µM [cytotoxic, single point]

Q: With `Cc1ccc(-n2nnnc2CCl)cc1` as the compound, how does the Potency read?
A: inconclusive: 29.1 µM [cytotoxic, single point]

Q: Which Potency does the source give for `O=C(CN(Cc1ccc(Cl)c(Cl)c1)S(=O)(=O)c1ccccc1)N/N=C\c1ccc2c(c1)OCO2` here?
A: active: 20.6 µM

Q: Which Potency does the source give for `Cc1cc(O)cc(O)c1-c1onc(C(F)(F)F)c1-c1cscn1` here?
A: inconclusive: 23.1 µM [cytotoxic, single point]

Q: Which Potency does the source give for `OC[C@@H]1CN(Cc2ccncc2)C[C@H](n2cnc3c(N4CCN(c5ccccc5)CC4)ncnc32)O1` here?
A: inconclusive: 14.6 µM [cytotoxic, partial curve]

Q: With `Cc1cc(C)c2oc(C(=O)N(Cc3ccccc3)c3ccccn3)cc(=O)c2c1` as the compound, how does the Potency read?
A: inconclusive: 0.517 µM [rising, full curve, poor fit]

Q: For `O=C(Nc1ccc(CN2CCOCC2)cc1)c1ccco1`, which “activity change, negative = cytotoxicity” value is on record?
A: inactive: -10.3%

Q: For `COc1cccc(CNS(=O)(=O)c2cc(-c3cc(C)no3)ccc2C(C)C)c1`, which Potency is on record?
A: inconclusive: 29.1 µM [cytotoxic, single point]

Q: For `Cc1nc2c(c(C)c1CCC(=O)Nc1ccc(F)cc1)c(=O)n(C)c(=O)n2C`, which “activity change, negative = cytotoxicity” value is on record?
A: inactive: -8.76%

Q: Which “activity change, negative = cytotoxicity” value does the source give for `Cc1ccc(OCC(=O)NNC(=S)NCc2ccccc2)cc1` here?
A: inactive: 2.82%

Q: Which Potency does the source give for `Cc1cccc(NS(=O)(=O)c2cc3c4c(c2)C(C)C(=O)N4CCC3)c1` (stereo not given) here?
A: inconclusive: 23.1 µM [cytotoxic, partial curve, poor fit]

Q: With `CCCCCc1cc(O)c2c(C)cc(=O)oc2c1` as the compound, how does the Potency read?
A: inconclusive: 25.9 µM [cytotoxic, single point]

Q: Which Potency does the source give for `O=C1NC(=S)S/C1=C\c1ccc(SCc2ccccc2)o1` here?
A: inconclusive: 29.1 µM [cytotoxic, single point]

Q: With `C=CCNc1sc(C(=O)c2ccccc2)c(N)c1-c1nc2ccccc2s1` as the compound, how does the Potency read?
A: inconclusive: 18.4 µM [cytotoxic, partial curve, poor fit]

Q: Which Potency does the source give for `CCOc1ccc(S(=O)(=O)NCCC2=CCCCC2)c2ccccc12` here?
A: inconclusive: 20.6 µM [cytotoxic, single point]

Q: With `CCCC(=O)Nc1nc2ccc(C(=O)OCC)cc2s1` as the compound, how does the “activity change, negative = cytotoxicity” value read?
A: inactive: 0.417%

Q: With `COc1ccc(CNC(=O)C2CCN(S(=O)(=O)N3CCCC3)CC2)c(OC)c1` as the compound, how does the “activity change, negative = cytotoxicity” value read?
A: inactive: -14.6%

Q: For `COc1ccc(N2CCN(C(=O)Cc3ccc(S(=O)(=O)N4CCOCC4)s3)CC2)cc1`, which Potency is on record?
A: inconclusive: 18.4 µM [cytotoxic, single point]
